The results in this text go back to PMC10079926.

Chains of the proteins cited; added tags and fusions are not shown.
UniProt Q07812: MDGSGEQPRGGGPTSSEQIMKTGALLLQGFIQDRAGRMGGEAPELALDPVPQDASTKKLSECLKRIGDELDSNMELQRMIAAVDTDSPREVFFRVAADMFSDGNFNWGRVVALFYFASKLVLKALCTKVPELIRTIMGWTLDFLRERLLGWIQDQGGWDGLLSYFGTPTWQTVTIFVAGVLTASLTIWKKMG
UniProt O00429: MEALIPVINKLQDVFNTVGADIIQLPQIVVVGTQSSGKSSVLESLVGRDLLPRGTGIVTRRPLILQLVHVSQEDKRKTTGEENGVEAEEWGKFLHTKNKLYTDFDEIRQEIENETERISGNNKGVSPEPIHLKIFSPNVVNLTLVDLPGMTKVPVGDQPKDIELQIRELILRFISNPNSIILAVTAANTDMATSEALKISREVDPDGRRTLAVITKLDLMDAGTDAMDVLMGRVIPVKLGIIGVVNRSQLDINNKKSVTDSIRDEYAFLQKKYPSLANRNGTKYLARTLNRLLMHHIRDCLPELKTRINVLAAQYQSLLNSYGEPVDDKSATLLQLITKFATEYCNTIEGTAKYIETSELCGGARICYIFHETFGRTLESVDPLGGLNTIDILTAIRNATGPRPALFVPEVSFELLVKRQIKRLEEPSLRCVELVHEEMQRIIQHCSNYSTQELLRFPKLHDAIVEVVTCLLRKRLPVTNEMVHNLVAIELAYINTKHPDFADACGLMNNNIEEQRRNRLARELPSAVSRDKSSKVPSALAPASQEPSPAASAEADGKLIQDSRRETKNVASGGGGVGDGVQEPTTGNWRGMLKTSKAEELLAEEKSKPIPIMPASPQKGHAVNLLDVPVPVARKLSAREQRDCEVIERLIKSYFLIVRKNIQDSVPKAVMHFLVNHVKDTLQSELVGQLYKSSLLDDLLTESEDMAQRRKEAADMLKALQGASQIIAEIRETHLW

The test addresses T1, PGAM5 (phosphoglycerate mutase family member 5, a mitochondrial phosphatase) (human (endogenous in Cal33 and HN6)) (UniProt Q96HS1).
T1 sequence: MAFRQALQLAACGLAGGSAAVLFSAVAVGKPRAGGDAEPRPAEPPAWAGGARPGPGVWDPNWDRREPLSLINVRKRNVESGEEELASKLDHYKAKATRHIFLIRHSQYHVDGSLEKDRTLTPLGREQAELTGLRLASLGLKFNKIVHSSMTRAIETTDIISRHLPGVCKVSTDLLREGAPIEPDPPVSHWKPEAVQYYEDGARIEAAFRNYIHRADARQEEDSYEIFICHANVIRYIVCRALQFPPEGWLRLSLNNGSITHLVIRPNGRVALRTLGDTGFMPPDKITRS
As to the kind of experiment: co-IP; co-IP/WB of endogenous proteins in Cal33 and HN6 cells with vector or TIPE3-HA overexpression; IP lysis buffer, antibody overnight at 4 °C, protein A/G Sepharose beads.

These are yes or no findings as the source states them, for the method shown. In cells and extracts the contact can be indirect. Some entries that bind do so weakly or less than the wild type.

With BAX (from UniProt Q07812 1-192), the binding result is given as “binds”.

Turning to “DRP1 (dynamin-like protein) (from UniProt O00429 1-736) (enzyme)”, the binding result is given as “binds”.
